From patent publication US10857167B2, “Use of oligosaccharide compositions to enhance weight gain” (Children's Hospital Medical Center, priority 2015, dated 2020)
The source gives many values for each of these; only a part stands here.

Tested on: distal small bowel gene expression
Assay: RNA sequencing / transcriptional analysis of small bowel 56 days after ICR (2′-FL signature response)
Format: in vivo, mouse
Source text: Luminal small bowel contents were expressed into AllProtect Tissue Reagent (Qiagen Inc, CA). Bacterial DNA was extracted using the AllPrep DNA/RNA Mini Kit (Qiagen Inc, CA), according to kit instructions and prior to sequencing (described below). Small bowel tissue samples for RNA were placed into RNA Later (Life Technologies, NY). RNA extraction was accomplished following Qiagen RNeasy Plus Kit instruction (Qiagen Inc, CA). All nucleic acid samples were then stored at -80 Celsius until sequenced (described below). Transcriptional analysis was carried out on resected and harvested small bowel samples obtained from operated mice taken to 8 weeks. Murine RNA sequencing libraries were prepared from approximately 1.5 μg RNA using the TruSeq RNA Sample Preparation Kit (Illumina, Calif.) and sequenced using the HiSeq 2000 Sequencing System (Illumina, Calif.) with single-end 50 bp reads. Following removal of primers and barcodes, sequences were aligned to the mm10 genome using reference annotations from UCSC (Rosenbloom et al. (2015) Nucleic acids research 43: […]-681) (n=36,186 entities). Aligned reads were quantified and used to compute reads per kilobase per million mapped reads (RPKM); raw counts were then normalized using the DESeq algorithm and each harvested sample was baselined to its own resected sample. A filter was applied to the data, requiring at least three reads in all samples of at least one of the four experimental conditions (n=14,489 entities). The data discussed in this publication have been deposited in NCBI's Gene Expression Omnibus and are accessible through NCBI Gene Expression Omnibus (GEO) Series accession number GSE72590. Edgar et al. (2002) Nucleic acids research 30: 207-210. In order to characterize the impact of 2'-FL supplementation while accounting for the effect of ileoecal resection, a t-test was applied between resected and harvested samples within control and experimental animals. Significance was set at a p-value of ≤0.05 and a fold change of 3, which generated 2,576 differentially regulated entities across two comparisons. Gene set unions and intersections of the control and experimental gene sets were identified through Venn diagrams. From the master list, the gene list specific to animals supplemented with 2'-FL were removed in order to identify genes differentially regulated only by ICR (n=546 entities); this gene set characterizes the adaptive response. Further, the 2'-FL response (n=2,030 entities) was identified by removing the adaptive response signature described above from the master list, leaving only genes regulated by 2'-FL supplementation after ICR which were not found in the non-supplemented adaptive response. Heatmaps were generated using hierarchical clustering with the Pearson's Centered distance metric and the average linkage rule; both entities and samples were clustered. All genomic analyses described above were performed in Strand NGS (Strand Life Sciences, CA). Gene list functional enrichment was initially discovered using ToppFun, a member of the ToppGene Suite. Chen et al. (2009) Nucleic acids research 37: […]-311. No statistical correction was selected. Gene lists were further analyzed using ClueGO, a plugin for Cytoscape designed to decipher functionally grouped gene ontology and pathway annotation networks. Bindea et al. (2009) Bioinformatics 25: 1091-1093. At the time of data analysis, the annotation files were updated from sources to Jan. 1, 2015. “GO Term Fusion” was enabled to manage ontologic term redundancy and network specificity was set to medium. Results were restricted to pathways with p≤0.05 using Benjamini-Hochberg correction and Kappa scoring was set to 0.4. Biocyc annotations were assigned a rectangle, gene ontology biologic processes were assigned an ellipse, and […] annotations were assigned a diamond shape. No meaning was assigned to size or color. […]

C[C@@H]1O[C@@H](O[C@H]2[C@H](O[C@H]3[C@H](O)[C@@H](O)C(O)O[C@@H]3CO)O[C@H](CO)[C@H](O)[C@@H]2O)[C@@H](O)[C@H](O)[C@@H]1O (stereo partly drawn) [2′-FL, 2′-fucosyllactose]
Fold Change (Pre- to Post-op) (P2ry10): 3.204
Fold Change (Pre- to Post-op) (Pafah1b3): 3.318
Fold Change (Pre- to Post-op) (Pam16): 3.406
Fold Change (Pre- to Post-op) (Pbx4): 9.262
Fold Change (Pre- to Post-op) (Pcbd2): 3.483
Fold Change (Pre- to Post-op) (Pdcd6): 3.622
Fold Change (Pre- to Post-op) (Pdcd10): 5.04
Fold Change (Pre- to Post-op) (Pet100): 5.568
Fold Change (Pre- to Post-op) (Pex2): 3.147
Fold Change (Pre- to Post-op) (Pfdn1): 3.358
Fold Change (Pre- to Post-op) (Pfdn5): 3.849
Fold Change (Pre- to Post-op) (Phgr1): 4.116
Fold Change (Pre- to Post-op) (Phlda2): 4.564
Fold Change (Pre- to Post-op) (Phospho2): 3.647
Fold Change (Pre- to Post-op) (Pigf): 3.784
Fold Change (Pre- to Post-op) (Pih1d2): 3.729
Fold Change (Pre- to Post-op) (Pla2g12b): 3.344
Fold Change (Pre- to Post-op) (Pla2g16): 3.171
Fold Change (Pre- to Post-op) (Plac8): 3.345
Fold Change (Pre- to Post-op) (Plac9a): 3.371
Fold Change (Pre- to Post-op) (Plac9b): 3.371
Fold Change (Pre- to Post-op) (Pmvk): 5.014
Fold Change (Pre- to Post-op) (Pold4): 3.168
Fold Change (Pre- to Post-op) (Polr2i): 3.189
Fold Change (Pre- to Post-op) (Polr2j): 3.219
Fold Change (Pre- to Post-op) (Polr2k): 5.389
Fold Change (Pre- to Post-op) (Polr1d): 3.231
Fold Change (Pre- to Post-op) (Pomp): 3.398
Fold Change (Pre- to Post-op) (Ppih): 4.322
Fold Change (Pre- to Post-op) (Ppp1r14d): 3.701
Fold Change (Pre- to Post-op) (Prap1): 3.981
Fold Change (Pre- to Post-op) (Prdx1): 3.381
Fold Change (Pre- to Post-op) (Prdx2): 3.842
Fold Change (Pre- to Post-op) (Prdx5): 4.089
Fold Change (Pre- to Post-op) (Prg2): 5.919
Fold Change (Pre- to Post-op) (Prkrip1): 3.005
Fold Change (Pre- to Post-op) (Prorsd1): 3.258
Fold Change (Pre- to Post-op) (Prrx1): 5.165
Fold Change (Pre- to Post-op) (Prss16): 3.968
Fold Change (Pre- to Post-op) (Psma3): 3.177
Fold Change (Pre- to Post-op) (Psma5): 3.049
Fold Change (Pre- to Post-op) (Psma6): 3.67
Fold Change (Pre- to Post-op) (Psma7): 5.538
Fold Change (Pre- to Post-op) (Psmb9): 3.059
Fold Change (Pre- to Post-op) (Psmd10): 3.428
Fold Change (Pre- to Post-op) (Psmd14): 3.822
Fold Change (Pre- to Post-op) (Psme2): 3.156
Fold Change (Pre- to Post-op) (Psmg4): 3.559
Fold Change (Pre- to Post-op) (Ptges3l): 3.396
Fold Change (Pre- to Post-op) (Ptgis): 3.03
Fold Change (Pre- to Post-op) (Pthlh): 3.335
Fold Change (Pre- to Post-op) (Ptpmt1): 3.707
Fold Change (Pre- to Post-op) (Ptrh1): 4.615
Fold Change (Pre- to Post-op) (Pts): 3.997
Fold Change (Pre- to Post-op) (Pycard): 4.268
Fold Change (Pre- to Post-op) (Rab9): 3.857
Fold Change (Pre- to Post-op) (Ran): 3.251
Fold Change (Pre- to Post-op) (Rap1b): 3.368
Fold Change (Pre- to Post-op) (Rasl2-9): 3.267
Fold Change (Pre- to Post-op) (Rbm3): 3.647
Fold Change (Pre- to Post-op) (Rbm7): 3.27
Fold Change (Pre- to Post-op) (Rbp2): 3.383
Fold Change (Pre- to Post-op) (Rbp7): 4.897
Fold Change (Pre- to Post-op) (Rdh16): 3.631
Fold Change (Pre- to Post-op) (Reg1): 3.362
Fold Change (Pre- to Post-op) (Reg3d): 5.356
Fold Change (Pre- to Post-op) (Rgs17): 3.385
Fold Change (Pre- to Post-op) (Rhebl1): 4.307
Fold Change (Pre- to Post-op) (Rhoc): 3.67
Fold Change (Pre- to Post-op) (Rhod): 4.302
Fold Change (Pre- to Post-op) (Rmdn1): 3.757
Fold Change (Pre- to Post-op) (Rnd2): 5.174
Fold Change (Pre- to Post-op) (Rnf7): 3.146
Fold Change (Pre- to Post-op) (Romo1): 3.798
Fold Change (Pre- to Post-op) (Rpa3): 4.327
Fold Change (Pre- to Post-op) (Rpl5): 3.662
Fold Change (Pre- to Post-op) (Rpl9): 4.323
Fold Change (Pre- to Post-op) (Rpl10a): 3.175
Fold Change (Pre- to Post-op) (Rpl11): 3.363
Fold Change (Pre- to Post-op) (Rpl12): 3.568
Fold Change (Pre- to Post-op) (Rpl13a): 4.834
Fold Change (Pre- to Post-op) (Rpl17): 4.619
Fold Change (Pre- to Post-op) (Rpl19): 3.266
Fold Change (Pre- to Post-op) (Rpl22l1): 3.846
Fold Change (Pre- to Post-op) (Rpl27): 3.19
Fold Change (Pre- to Post-op) (Rpl27a): 3.001
Fold Change (Pre- to Post-op) (Rpl32): 3.449
Fold Change (Pre- to Post-op) (Rpl35): 4.283
Fold Change (Pre- to Post-op) (Rpl35a): 4.542
Fold Change (Pre- to Post-op) (Rpl36): 4.099
Fold Change (Pre- to Post-op) (Rpl39): 3.252
Fold Change (Pre- to Post-op) (Rpl41): 5.464
Fold Change (Pre- to Post-op) (Rplp0): 3.47
Fold Change (Pre- to Post-op) (Rps3): 3.59
Fold Change (Pre- to Post-op) (Rps7): 3.864
Fold Change (Pre- to Post-op) (Rps8): 3.076
Fold Change (Pre- to Post-op) (Rps9): 3.018
Fold Change (Pre- to Post-op) (Rps10): 3.708
Fold Change (Pre- to Post-op) (Rps11): 3.225
Fold Change (Pre- to Post-op) (Rps12): 3.585
Fold Change (Pre- to Post-op) (Rps13): 3.214
Fold Change (Pre- to Post-op) (Rps14): 4.273
Fold Change (Pre- to Post-op) (Rps15): 3.233
Fold Change (Pre- to Post-op) (Rps18): 3.269
Fold Change (Pre- to Post-op) (Rps19): 3.136
Fold Change (Pre- to Post-op) (Rps21): 3.557
Fold Change (Pre- to Post-op) (Rps27): 3.214
Fold Change (Pre- to Post-op) (Rps27a): 3.505
Fold Change (Pre- to Post-op) (Rps27l): 4.991
Fold Change (Pre- to Post-op) (S100a1): 3.593
Fold Change (Pre- to Post-op) (S100a4): 3.218
Fold Change (Pre- to Post-op) (S100a10): 3.197
Fold Change (Pre- to Post-op) (S100a14): 6.184
Fold Change (Pre- to Post-op) (S100a16): 3.164
Fold Change (Pre- to Post-op) (Sall1): −3.002
Fold Change (Pre- to Post-op) (Sar1b): 5.1
Fold Change (Pre- to Post-op) (Sc4mol): 4.073
Fold Change (Pre- to Post-op) (Scoc): 3.046
Fold Change (Pre- to Post-op) (Sdcbp2): 4.252
Fold Change (Pre- to Post-op) (Sdf2): 3.001
